# This is one part of the list. Further columns of the screen follow, without active or inactive calls. The list favours compounds with an active or inconclusive main result. Words in brackets tell the shape of the fitted curve; partial curves, single points and poor fits give uncertain potencies.
# Assay: IkB Signaling
# Settings: ABC-DLBCL IkBa-CBG/CBR dual luciferase ratio (green luciferase fused to IkBa over red control in OCI-Ly3 lymphoma cells), 4 h
# Text: NIH Molecular Libraries Screening Centers Network [MLSCN]
# NIH Chemical Genomics Center [NCGC]
# Nuclear factor kappa-B (NF-kappa-B) plays an important role in normal B cell development and survival. Diffuse large B cell lymphoma (DLBCL) is the most commonly observed type of non-Hodgkin's lymphoma. Gene expression analysis has identified an activated B cell-like subtype of DLBCL (ABC-DLBCL) which expresses known NF-kappa-B target genes. […] However, targets upstream of IKK have been largely unexplored and so nodes upstream of IKK in the NF-kappa-B pathway remain untested due to the lack of chemical probes.
# A cell-sensor assay for I-kappa-B-alpha stabilization was developed with NIH investigator Dr. R. Eric Davis in Dr. Louis M. Staudt's laboratory. The assay uses green (CBG68) and red (CBR) emitting beetle luciferases [Chroma-Glo(TM) developed by Promega Corp.] where the green luciferase is fused to I-kappa-B-alpha and the red luciferase is present in its native state. Both luciferase genes are stably present in the OCI-Ly3 human ABC DLBCL cell line, but their expression is under the control of tetracycline-inducible promoters. Following the addition of doxycycline to induce expression of the luciferases, the green luminescence in control cultures rises only slowly because the CBG fusion partner I-kappa-B-alpha is targeted by IKK activity for rapid degradation. In contrast, green luminescence rises rapidly in the presence of proteasome inhibitors or IKK inhibitors. The rise in red luminescence of CBR is not affected by proteasome or IKK inhibitors, and serves as normalization for cell number and nonspecific effects. Compounds were screened as a concentration-titration series that ranged from 57 uM to 0.7 nM.
# NCGC Assay Protocol Summary:
# Cells were seeded in 1536-well plates at 5000 cells/3ul in IMDM medium containing 0.5% FBS, w/o phenol red, L-glutamine, 25 mM HEPES, 3 mg/ml sodium bicarbonate. After centrifugation for 1 min. at 1000 rpm, 23 nl of compounds or DMSO were delivered to each well using a pin tool. Then 1ul 80ng/ml doxycycline was dispensed into white solid 1536-well plates and the plates were incubated at 37C/5% C02 in a cell incubator for 4 hrs. Then 4 ul Chroma-Glo luminescent substrate mix (Promega) was added to each well. The plate was incubated at R.T. for 10-15 min. The plates were measured on a ViewLux plate reader for green luminescence (540/20 nm filter) and red luminescence (618/8 nm filter). The green and red luminescent signals were corrected for red and green luminescence filter overlap using previously determined filter calibration constants (determined using the procedure outlined in the Promega Technical Manual). The %Activity was determined from the ratio of corrected green/red luminescent values. Green luminescent and ratio %Activity was determined by normalizing to the difference in signal between basal cells (0% Activity) and cells incubated with 10 uM of the proteasome inhibitor MG-132 (100% Activity). Red luminescent %Activity was normalized to the difference between red luminesence in basal cells (0%Activity) and zero luminescence (-100% Activity).
# Concentration-response curves were fitted to the signals arising from the green luminescence (I-kappa-B-alpha-luciferase fusion; IkB-luc) and the red luminescence (unfused luciferase; luc) as well as the calculated ratio. The concentration-effect curves were then classified based on curve quality (r2), response magnitude and degree of measured activity. Compounds were then categorized based on their concentration-response curves for all three datasets (Ikb-luc, luc and ratio).
# Keywords: IKK, I-kappa-B, IkB, IkBa, cytotoxicity, luminescence, MLSMR, MLSCN, NIH Roadmap, qHTS, NCGC
# [1] = measured here: control luc red channel unless noted
smiles,measurement,setting,value
CCOC(=O)C1=C(C)NC(SCc2cc(=O)[nH][nH]2)=C(C#N)C1c1cccs1 (stereo not given),AC50,[1],"15.8 µM [falling, partial curve]"
O[C@H](CN1CCN(c2cccc(Cl)c2)CC1)C(c1ccccc1)c1ccccc1,AC50,[1],"25.1 µM [falling, partial curve]"
CCOc1ccc(-n2cc(C(=O)Nc3ccccc3OCC)c3cc(OC)c(OC)cc3c2=O)cc1,AC50,[1],"25.1 µM [falling, partial curve]"
CCOC(=O)c1c(NC(=O)CS(=O)(=O)c2ccc(C)cc2)sc2c1CCC(C)C2 (stereo not given),AC50,[1],"25.1 µM [falling, partial curve, poor fit]"
CC1CCN(C(=O)Cn2cc(SCc3cccc(F)c3)c3ccccc32)CC1,AC50,[1],"10 µM [falling, partial curve]"
CC1CCN(C(=O)Cn2cc(SCc3ccccc3)c3ccccc32)CC1,AC50,[1],"12.6 µM [falling, partial curve]"
CCCc1nnc(N2C(=O)c3oc4ccc(F)cc4c(=O)c3C2c2ccc(C(=O)OC)cc2)s1 (stereo not given),AC50,[1],"25.1 µM [falling, single point]"
Cc1ccc(-c2cc(C(=O)Nc3c(C(=O)c4ccccc4)oc4ccccc34)no2)cc1F,AC50,[1],"20 µM [falling, single point]"
Cc1ccc(Cc2nc3ccccc3nc2SCC(=O)Nc2cccc(C(F)(F)F)c2)cc1,AC50,[1],"31.6 µM [falling, partial curve, poor fit]"
CCNC(=O)NC(=O)COc1ccccc1C#N,AC50,[1],"12.6 µM [falling, partial curve]"
O=c1c2ccccc2nnn1CSc1nnc(COc2ccc(Cl)cc2)n1Cc1ccco1,AC50,[1],"7.94 µM [falling, partial curve]"
Cc1ccc(-n2ncc3c(NC4CCCCC4)ncnc32)cc1,AC50,[1],"1.58 µM [falling, partial curve]"
Cc1ccc(C)c(NS(=O)(=O)c2ccc(NC(=O)c3ccco3)cc2)c1,AC50,[1],"10 µM [rising, partial curve, poor fit] [measured here: IkB-luc green channel]"
COc1ccccc1C(=O)N1CCN(c2nc3cc(C)c(C)cc3cc2C#N)CC1,AC50,measured here: IkB-luc green channel,"39.8 µM [falling, single point]"
same,AC50,measured here: control luc red channel,"15.8 µM [falling, partial curve]"
CC(C)(C)c1ccc(S(=O)(=O)NCc2nc3cccnc3n2Cc2ccccc2Cl)cc1,AC50,[1],"39.8 µM [falling, single point]"
Cc1nn(CC(=O)NCCc2ccccc2Cl)c(=O)c2nn(-c3ccccc3)c(C)c12,AC50,[1],"5.01 µM [rising, partial curve]"
O=S(=O)(c1ccccc1)N1CCC(c2ccncc2)CC1,AC50,[1],"39.8 µM [falling, single point]"
CCOc1ccc(CNC(=O)Cn2nc(C)c3nn(-c4ccc(Cl)cc4)c(C)c3c2=O)cc1OC,AC50,[1],"25.1 µM [falling, partial curve]"
CCC(C)NC(=O)c1sc2nc(C)c(C(=O)Nc3ccc(C)cc3C)c(-c3ccc(Cl)cc3)c2c1N (stereo not given),AC50,[1],"5.01 µM [falling, full curve]"
O=C(CSc1ccccc1)NCc1ccc2c(c1)CCN2C(=O)c1ccc(F)cc1,AC50,[1],"1.26 µM [falling, partial curve]"
Cn1c(SCc2cnc(-c3ccccc3)s2)nnc1C1COc2ccccc2O1 (stereo not given),AC50,[1],"25.1 µM [falling, single point]"
O=C(Cc1ccccc1)N(Cc1cccnc1)c1nc2ccc(F)cc2s1,AC50,[1],"39.8 µM [falling, single point]"
CCOc1cccc(NC(=O)Cc2cccs2)c1,AC50,[1],"25.1 µM [rising, partial curve, poor fit]"
O=C(Nc1cccc2cccnc12)c1ccc(F)cc1,AC50,[1],"31.6 µM [falling, partial curve, poor fit]"
O=C(COc1ccc(S(=O)(=O)NC2CCCCC2)cc1)Nc1ccc2c(c1)OCCO2,AC50,[1],"15.8 µM [falling, partial curve]"
Cc1ccccc1-c1nnc(C2CCN(S(=O)(=O)c3ccc(Cl)cc3)CC2)o1,AC50,[1],"20 µM [falling, partial curve]"
Cc1nc(N2CCCC2)c2c(C(=O)N3CCN(c4cccc(C)c4C)CC3)c(C)oc2n1,AC50,[1],"25.1 µM [falling, single point]"
Cc1c(C(=O)NCCC2=CCCCC2)oc2ccc(S(=O)(=O)N3CCC4(CC3)OCCO4)cc12,AC50,[1],"6.31 µM [falling, partial curve]"
O=C(CSc1nc(-c2ccccc2)[nH]c1-c1ccccc1)Nc1ccc2c(c1)OCCO2,AC50,[1],"10 µM [falling, partial curve]"
O=C(Nc1cccnc1)c1cc(-c2ccco2)on1,AC50,[1],"6.31 µM [falling, partial curve]"
O=C(CN1CCN(c2ncccn2)CC1)Nc1ccccc1-n1cccc1,AC50,[1],"25.1 µM [falling, single point]"
CCCSCCCNC(=O)c1ccc2c(c1)nc1n2CCCCC1,AC50,[1],"15.8 µM [falling, partial curve]"
CC(C)c1cc(-c2nc(-c3ccccc3)no2)n[nH]1,AC50,[1],"0.0158 µM [falling, full curve]"
COc1ccc(S(=O)(=O)N2CCN(Cc3ccc4c(c3)OCO4)CC2)cc1OC,AC50,[1],"31.6 µM [falling, single point]"
CN(CC(=O)Nc1ccccc1Cl)S(=O)(=O)c1ccc(C(=O)N2CCOCC2)s1,AC50,[1],"0.794 µM [falling, full curve, poor fit]"
Cc1cccc(-c2nnc3n2N=C(c2ccccc2Br)CS3)c1,AC50,[1],"20 µM [falling, single point]"
COc1ccc(-c2noc(CN(C)S(=O)(=O)c3ccccc3)n2)cc1OC,AC50,[1],"398 nM [falling, full curve] [measured here: IkB-luc green channel]"
COc1cc(Cl)c(NC(=O)C2CCN(S(=O)(=O)c3c(C)noc3/C=C/c3ccccc3F)CC2)c(OC)c1,AC50,[1],"7.94 µM [falling, full curve, poor fit]"
O=C(CCCn1c(=O)[nH]c2ccccc2c1=O)NCc1ccccc1Cl,AC50,[1],"6.31 µM [rising, partial curve]"

# Nothing new here: entries from further up.
smiles,measurement,setting,value
COc1ccc(-c2noc(CN(C)S(=O)(=O)c3ccccc3)n2)cc1OC,AC50,[1],"398 nM [falling, full curve] [measured here: IkB-luc green channel]"
COc1cc(Cl)c(NC(=O)C2CCN(S(=O)(=O)c3c(C)noc3/C=C/c3ccccc3F)CC2)c(OC)c1,AC50,[1],"7.94 µM [falling, full curve, poor fit]"
